Where a chain is given by its changes, count along the chain named. No constants are given. Whether binding was seen depends on the method and setting. In cells and extracts the contact can be indirect. Some binding calls cover weakened binding; strength is not graded here. Tags and fused reporters may be left off the sequences shown.
What was measured:
Assay in all cases: co-IP; HEK293 cells co-transfected with β-arrestin 2 and GPR110-HA (WT or mutants) for 24 h; treated with 10 nM synaptamide or DMSO for 5 or 10 min; lysed in buffer with 1% Triton; immunoprecipitation with HA antibody; blots with anti-HA and anti-β-arrestin
[1] = molecular target: T1, GPR110-HA double mutant Q511A/N512A (human) (UniProt Q5T601)
T1 sequence: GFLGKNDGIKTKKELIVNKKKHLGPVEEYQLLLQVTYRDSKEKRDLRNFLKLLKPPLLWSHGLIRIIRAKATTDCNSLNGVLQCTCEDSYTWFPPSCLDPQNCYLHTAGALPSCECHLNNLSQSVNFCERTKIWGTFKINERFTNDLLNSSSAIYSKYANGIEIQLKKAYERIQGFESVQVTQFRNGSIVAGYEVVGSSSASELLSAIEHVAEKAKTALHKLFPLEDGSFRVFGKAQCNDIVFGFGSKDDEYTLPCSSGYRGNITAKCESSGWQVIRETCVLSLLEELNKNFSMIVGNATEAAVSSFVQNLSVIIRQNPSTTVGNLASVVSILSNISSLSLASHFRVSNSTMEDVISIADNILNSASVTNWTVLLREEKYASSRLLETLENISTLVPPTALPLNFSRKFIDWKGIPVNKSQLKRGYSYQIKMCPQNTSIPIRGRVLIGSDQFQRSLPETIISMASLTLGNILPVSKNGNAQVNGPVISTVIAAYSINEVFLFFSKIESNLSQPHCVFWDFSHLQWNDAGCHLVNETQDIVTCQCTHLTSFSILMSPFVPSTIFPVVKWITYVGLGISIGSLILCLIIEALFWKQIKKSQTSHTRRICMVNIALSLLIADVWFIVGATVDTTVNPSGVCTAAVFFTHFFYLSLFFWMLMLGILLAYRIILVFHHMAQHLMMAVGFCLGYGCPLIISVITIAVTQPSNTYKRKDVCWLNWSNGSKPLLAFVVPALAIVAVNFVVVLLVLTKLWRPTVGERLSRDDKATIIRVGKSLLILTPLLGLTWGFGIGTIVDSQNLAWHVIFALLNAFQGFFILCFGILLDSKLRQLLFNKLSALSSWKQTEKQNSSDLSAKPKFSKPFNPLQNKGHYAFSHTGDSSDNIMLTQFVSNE

[2] = molecular target: T2, GPR110-HA double mutant N512A/Y513A (human) (UniProt Q5T601)
T2 sequence: T1 sequence with A492Q, Y494A

[3] = molecular target: T3, C-terminal HA-tagged human GPR110 (GPR110-HA), wild type (human) (UniProt Q5T601)
T3 sequence: T1 sequence with A492Q, A493N

Substance: β-arrestin 2 (variant 1) (from UniProt P32121 1-409)
- binding [1]: no binding
- binding [2]: no binding
- binding [3]: binds
